In patent US20100069468:
pKd: −log10 of the molar value. Construct, isoform or probe ends are uncertain for at least one entry.

The chains behind the UniProt entries cited, without tags or fusion partners. Where a name states a change or a piece, a line headed by the entry shows the natural chain unless it says otherwise.
UniProt P05067: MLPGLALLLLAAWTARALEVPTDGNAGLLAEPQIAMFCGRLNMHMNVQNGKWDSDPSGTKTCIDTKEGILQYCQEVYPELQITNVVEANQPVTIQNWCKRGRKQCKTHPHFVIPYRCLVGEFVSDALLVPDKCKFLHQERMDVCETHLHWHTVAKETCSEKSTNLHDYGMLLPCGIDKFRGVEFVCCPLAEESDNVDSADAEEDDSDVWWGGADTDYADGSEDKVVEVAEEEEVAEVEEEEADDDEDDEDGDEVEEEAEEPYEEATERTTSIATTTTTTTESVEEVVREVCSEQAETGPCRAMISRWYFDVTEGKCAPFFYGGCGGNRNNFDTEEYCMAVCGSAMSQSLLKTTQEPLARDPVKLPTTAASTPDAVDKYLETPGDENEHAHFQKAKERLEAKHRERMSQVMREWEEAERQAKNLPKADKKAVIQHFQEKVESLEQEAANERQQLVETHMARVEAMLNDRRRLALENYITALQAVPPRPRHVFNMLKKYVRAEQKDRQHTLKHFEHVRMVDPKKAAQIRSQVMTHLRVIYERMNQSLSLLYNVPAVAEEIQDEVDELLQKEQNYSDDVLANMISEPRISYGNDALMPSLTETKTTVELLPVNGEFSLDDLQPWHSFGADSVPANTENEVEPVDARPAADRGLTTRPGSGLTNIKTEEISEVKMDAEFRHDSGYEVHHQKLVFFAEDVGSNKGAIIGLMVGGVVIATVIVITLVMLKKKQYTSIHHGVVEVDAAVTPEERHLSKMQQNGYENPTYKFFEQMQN

Molecular target: beta-amyloid peptide Abeta(1-40) (UniProt P05067)
Assay: binding assay
Conditions: CITED Ylera et al. 2002; highest affinity Abeta(1-40) aptamer; protein details: 40-residue peptide, dissolved in HFIP

UUUACCGUAAGGCCUGUCUUCGUUUGACAGCGGCUUGUUGACCCUCACACUUUGUACCUGCUGCCAA [B55]
pKd: 7.54
